Results are given in words; binding and its absence hold for the method and conditions named. Binding seen in cells or lysates may run through a third protein. Tags and fused reporters may be left off the sequences shown.
Target: T1, Tgfbrap1-FLAG (human), Q8WUH2
T1 chain: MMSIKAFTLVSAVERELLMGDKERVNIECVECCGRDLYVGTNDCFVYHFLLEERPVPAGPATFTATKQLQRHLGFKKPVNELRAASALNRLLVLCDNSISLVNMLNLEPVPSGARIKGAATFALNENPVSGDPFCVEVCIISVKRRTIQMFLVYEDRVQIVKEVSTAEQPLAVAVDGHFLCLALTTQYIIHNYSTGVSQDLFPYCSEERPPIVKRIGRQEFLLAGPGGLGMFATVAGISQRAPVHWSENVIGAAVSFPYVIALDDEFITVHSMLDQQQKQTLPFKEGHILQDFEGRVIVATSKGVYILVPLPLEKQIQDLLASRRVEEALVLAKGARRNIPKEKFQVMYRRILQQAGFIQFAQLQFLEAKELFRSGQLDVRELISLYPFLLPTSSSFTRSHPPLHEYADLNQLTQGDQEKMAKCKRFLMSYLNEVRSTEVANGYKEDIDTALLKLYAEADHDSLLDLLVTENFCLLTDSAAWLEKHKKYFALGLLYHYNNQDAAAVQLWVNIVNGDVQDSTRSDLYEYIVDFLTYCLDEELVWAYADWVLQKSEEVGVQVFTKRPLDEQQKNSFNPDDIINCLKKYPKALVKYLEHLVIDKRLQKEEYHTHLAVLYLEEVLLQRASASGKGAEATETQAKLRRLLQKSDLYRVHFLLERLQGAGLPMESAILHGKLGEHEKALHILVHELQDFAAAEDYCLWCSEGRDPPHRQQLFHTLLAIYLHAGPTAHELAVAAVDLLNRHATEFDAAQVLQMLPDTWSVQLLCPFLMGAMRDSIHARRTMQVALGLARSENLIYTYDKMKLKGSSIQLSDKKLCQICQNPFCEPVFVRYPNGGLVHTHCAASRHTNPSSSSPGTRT
Assay: co-IP; anti-FLAG beads on lysates of HEK293 cells overexpressing a FLAG-tagged subunit together with untagged VPS8 or VPS41-HA; eluates analysed by western blot; lysis buffer 50 mM TRIS-HCl pH 7.5, 150 mM NaCl, 1% Triton X-100, 5 mM EDTA; 1.5 h at 4 °C
Details: remark: other sources report otherwise

B1: VPS41-HA, P49754 1-854 (protein)
chain: MAEAEEQETGSLEESTDESEEEESEEEPKLKYERLSNGVTEILQKDAASCMTVHDKFLALGTHYGKVYLLDVQGNITQKFDVSPVKINQISLDESGEHMGVCSEDGKVQVFGLYSGEEFHETFDCPIKIIAVHPHFVRSSCKQFVTGGKKLLLFERSWMNRWKSAVLHEGEGNIRSVKWRGHLIAWANNMGVKIFDIISKQRITNVPRDDISLRPDMYPCSLCWKDNVTLIIGWGTSVKVCSVKERHASEMRDLPSRYVEIVSQFETEFYISGLAPLCDQLVVLSYVKEISEKTEREYCARPRLDIIQPLSETCEEISSDALTVRGFQENECRDYHLEYSEGESLFYIVSPRDVVVAKERDQDDHIDWLLEKKKYEEALMAAEISQKNIKRHKILDIGLAYINHLVERGDYDIAARKCQKILGKNAALWEYEVYKFKEIGQLKAISPYLPRGDPVLKPLIYEMILHEFLESDYEGFATLIREWPGDLYNNSVIVQAVRDHLKKDSQNKTLLKTLAELYTYDKNYGNALEIYLTLRHKDVFQLIHKHNLFSSIKDKIVLLMDFDSEKAVDMLLDNEDKISIKKVVEELEDRPELQHVYLHKLFKRDHHKGQRYHEKQISLYAEYDRPNLLPFLRDSTHCPLEKALEICQQRNFVEETVYLLSRMGNSRSALKMIMEELHDVDKAIEFAKEQDDGELWEDLILYSIDKPPFITGLLNNIGTHVDPILLIHRIKEGMEIPNLRDSLVKILQDYNLQILLREGCKKILVADSLSLLKKMHRTQMKGVLVDEENICESCLSPILPSDAAKPFSVVVFHCRHMFHKECLPMPSMNSAAQFCNICSAKNRGPGSAILEMKK
- binding: no binding

— publication PMC11066007, “CORVET-specific subunit levels determine the balance between HOPS/CORVET endosomal tethering complexes” (Scientific Reports, 2024)
